Among all 320,000 compounds or so, about 22,000 (6.9%) were called active. This list was built around the results that the source calls inconclusive (neither active nor inactive); the mix of calls is not that of the screen. The call rests on the fitted dose curve; in most records, active means well fitted inhibition curve with a large enough effect; inconclusive means small, poorly fitted or top-dose-only effect, or another doubt; inactive means no such curve, though single readings can be large or run the other way. Potencies beside an inconclusive call are fits to weak or partial responses and may not hold up.
assay: Primary qHTS for delayed death inhibitors of the malarial parasite plastid, 96 hour incubation; details: P. falciparum luciferase reporter growth; series mostly up to 28.7 µM; activity change, negative = inhibition: at the top concentration
How it was run: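 Compounds incubated with erythrocytes infected by luciferase-expressing P. falciparum (2% hematocrit, 0.05% parasitemia final) for 96 hours, 37 C in 5% CO2. Growth inhibition scored as decreased luciferase luminescence.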
On the % scale 0 is the no-effect control and ±100 the full control effect; potency means the concentration at half of the fitted maximal effect.

Row | Compound | Potency | activity change, negative = inhibition
1 | CCc1cc(=O)oc2c3c(cc(OCC(=O)N[C@H](C(=O)O)[C@H](C)CC)c12)OC(C)(C)CC3 | inconclusive: 7.38 µM [inhibitor, partial curve, poor fit] | –
2 | CCCCn1c(N)c(N(CC(C)C)C(=O)CCCc2nc3ccccc3s2)c(=O)[nH]c1=O | inconclusive: 13.1 µM [inhibitor, partial curve] | –
3 | COc1ccc(S(=O)(=O)n2nc(OC(=O)C3CCCCC3)cc2N)cc1 | – | inactive: -56.1%
4 | O=C(O)c1ccc2c(=O)n3c(nc2c1)/C(=C/c1ccc(Cl)cc1Cl)CC3 | inconclusive: 18.5 µM [inhibitor, partial curve, poor fit] | –
5 | CCOC(=O)C1(Cc2cccc(F)c2)CCN(C(=O)C2CCOCC2)CC1 | inconclusive: 10.4 µM [inhibitor, single point] | –
6 | Cc1ccc(-c2cc3nc(-c4ccccc4)cc(N)n3n2)cc1 | – | inactive: -45%
7 | COc1ccc(CN2CCN(Cc3ccc(C)cc3)C(CCO)C2)cc1OC (stereo not given) | – | inactive: -3.75%
8 | CC(C)(C)c1csc(NC(=O)C2COc3ccccc3O2)n1 (stereo not given) | – | inactive: 54.9%
9 | CC(C)(CO)CNC(=O)c1ccc(OC2CCN(C(=O)C3CC3)CC2)cc1 | – | inactive: 5.66%
10 | CCN(CC)S(=O)(=O)c1cccc(S(=O)(=O)N2CCCCC2)c1 | – | inactive: 0%
11 | O=S(=O)(c1ccc(Cl)s1)N1CCc2ccccc2C1 | inconclusive: 18.5 µM [inhibitor, partial curve, poor fit] | –
12 | CCOC(=O)C1CCN(Cc2c(C(=O)N3CCOCC3)nc3c(C)cccn23)CC1 | inconclusive: 7.38 µM [inhibitor, partial curve] | –
13 | O=[N+]([O-])c1cc(CN2CCCC2)ccc1Sc1ccc(Cl)cc1 | – | inactive: -19.6%
14 | COc1ccc(C(=O)Nc2ccc3oc(-c4cccc(Cl)c4)cc(=O)c3c2O)cc1 | inconclusive: 11.7 µM [inhibitor, single point] | –
15 | C/C(=N\NC(=O)c1ccc(OC2OCCOC2Oc2ccc(C(=O)N/N=C(\C)c3ccncc3)cc2)cc1)c1ccncc1 (stereo not given) | inconclusive: 0.415 µM [inhibitor, partial curve, poor fit] | –
16 | O=C(Cc1ccccc1)NCCc1cccc(Cl)c1 | inconclusive: 0.262 µM [inhibitor, partial curve, poor fit] | –
17 | CC1=Nc2ccccc2/C1=C/c1c(N)n2c(S(=O)(=O)CC(C)C)nsc2nc1=O | inconclusive: 7.38 µM [inhibitor, partial curve, poor fit] | –
18 | CN(Cc1ccon1)C(=O)c1ccc2nc(Cc3cccc(Cl)c3)oc2c1 | active: 13.1 µM | –
19 | O=C(c1ccc([N+](=O)[O-])s1)N1CCN(c2ccc(C(F)(F)F)cn2)CC1 | active: 3.29 µM | –
20 | CCN(CC)S(=O)(=O)c1ccc(N2CCOCC2)c(NC(=O)c2ccc(=O)n(C)n2)c1 | inconclusive: 6.57 µM [inhibitor, partial curve, poor fit] | –

Of the compounds above, these have a thiophene ring, fused or not:
Row | Compound | Potency | activity change, negative = inhibition
11 | O=S(=O)(c1ccc(Cl)s1)N1CCc2ccccc2C1 | inconclusive: 18.5 µM [inhibitor, partial curve, poor fit] | –
19 | O=C(c1ccc([N+](=O)[O-])s1)N1CCN(c2ccc(C(F)(F)F)cn2)CC1 | active: 3.29 µM | –

Continuation.

Row | Compound | Potency | activity change, negative = inhibition
21 | CCN(Cc1ccccc1)C(=O)COc1cc(=O)n(CC)c2ccccc12 | inconclusive: 3.29 µM [inhibitor, partial curve, poor fit] | –
22 | CC(C)OCCCN1CC(=O)N2C(c3ccccc3)c3[nH]c4ccccc4c3C[C@H]2C1=O (stereo not given in full) | inconclusive: 1.85 µM [inhibitor, full curve, poor fit] | –
23 | CC(C)OC(=O)c1c(NC(=O)C2CC=CCC2C(=O)O)sc2c1CCCCC2 (stereo not given) | active: 9.28 µM | –
24 | Cc1nc(NCc2ccccc2)sc1C(=O)Nc1ccccc1 | – | inactive: 89.3%
25 | CC1CCCCC1NC(=O)CN1CCN(S(=O)(=O)c2ccc(Br)s2)CC1 (stereo not given) | inconclusive: 10.4 µM [inhibitor, partial curve, poor fit] | –
26 | COC(=O)c1ccc(CN2CCN(CC(C)C)C(CCO)C2)cc1 (stereo not given) | inconclusive: 18.5 µM [inhibitor, partial curve, poor fit] | –
27 | Cc1cc(C)nc(CCNC(=O)c2cc(COc3c(F)cccc3F)on2)n1 | inconclusive: 16.5 µM [inhibitor, partial curve, poor fit] | –
28 | Cc1ccc(CNC(=O)CNS(=O)(=O)c2ccc3nc(C)sc3c2)cc1 | inconclusive: 0.0738 µM [inhibitor, full curve, poor fit] | –
29 | COc1nc(OCC#N)nc(N2CCCCC2)n1 | inconclusive: 11.7 µM [inhibitor, partial curve, poor fit] | –
30 | COCC(C)NS(=O)(=O)c1ccc(C(=O)NC(Cc2ccccc2)c2ccccc2)cc1 (stereo not given) | inconclusive: 20.8 µM [inhibitor, partial curve, poor fit] | –
31 | CCNC(=S)N(CCc1c(C)[nH]c2ccc(C)cc12)Cc1cccs1 | inconclusive: 14.7 µM [inhibitor, single point] | –
32 | CCc1ccc(-c2nc(C(N)=O)c3[nH]c(=O)n(-c4ccccc4OC)c3n2)cc1 | inconclusive: 5.86 µM [inhibitor, partial curve, poor fit] | –
33 | Cc1cc2c(N3CCCCC3C)ncnc2s1 (stereo not given) | inconclusive: 1.31 µM [inhibitor, partial curve, poor fit] | –
34 | Cc1nn(C(C)C)c(C)c1[C@@H]1C[C@H]2CN(Cc3cccc(Cl)c3)C(=O)[C@]23CCCN13 | inconclusive: 9.28 µM [inhibitor, partial curve] | –
35 | COc1cccc(C(=O)OCCNC(=O)c2cccnc2)c1 | – | inactive: -20.7%
36 | Cc1ccc(CN(C)C(=O)c2ccccc2NC(=O)c2ccccc2)o1 | inconclusive: 18.5 µM [inhibitor, single point] | –
37 | Cc1nn(-c2ccccc2)c(C)c1C(=O)OC(C)C(=O)NC1CCCCC1C (stereo not given) | inconclusive: 16.5 µM [inhibitor, partial curve, poor fit] | –
38 | CN=C(Nc1ccc(C(=O)OC)cc1)SC1CC(=O)N(c2ccccc2F)C1=O (stereo not given) | inconclusive: 18.5 µM [inhibitor, single point] | –
39 | CCOC(=O)Cn1c(S(=O)(=O)Cc2ccccc2)nc2ccccc21 | inconclusive: 5.86 µM [inhibitor, partial curve, poor fit] | –
40 | Cc1ccc(-c2nc(SCC(=O)NCC3CCCO3)c(-c3ccccc3)[nH]2)cc1 (stereo not given) | inconclusive: 11.7 µM [inhibitor, single point] | –

Reference: PubChem BioAssay AID504834 (National Center for Advancing Translational Sciences (NCATS), 2011)
